# From publication PMC6775114
# Sequences of proteins named here, by UniProt entry; tags and fusion partners are left off. A change or cut given only in a name is not applied to a line headed by its entry. A line that says so, or that is headed by a name, gives the form on record, which may keep a tag or linker. Residues count along the entry.
# GST-nesprin-1-alpha2 wild type (aa1-842, SR1-5, KASH-less bait protein) (Q8NF91, form named): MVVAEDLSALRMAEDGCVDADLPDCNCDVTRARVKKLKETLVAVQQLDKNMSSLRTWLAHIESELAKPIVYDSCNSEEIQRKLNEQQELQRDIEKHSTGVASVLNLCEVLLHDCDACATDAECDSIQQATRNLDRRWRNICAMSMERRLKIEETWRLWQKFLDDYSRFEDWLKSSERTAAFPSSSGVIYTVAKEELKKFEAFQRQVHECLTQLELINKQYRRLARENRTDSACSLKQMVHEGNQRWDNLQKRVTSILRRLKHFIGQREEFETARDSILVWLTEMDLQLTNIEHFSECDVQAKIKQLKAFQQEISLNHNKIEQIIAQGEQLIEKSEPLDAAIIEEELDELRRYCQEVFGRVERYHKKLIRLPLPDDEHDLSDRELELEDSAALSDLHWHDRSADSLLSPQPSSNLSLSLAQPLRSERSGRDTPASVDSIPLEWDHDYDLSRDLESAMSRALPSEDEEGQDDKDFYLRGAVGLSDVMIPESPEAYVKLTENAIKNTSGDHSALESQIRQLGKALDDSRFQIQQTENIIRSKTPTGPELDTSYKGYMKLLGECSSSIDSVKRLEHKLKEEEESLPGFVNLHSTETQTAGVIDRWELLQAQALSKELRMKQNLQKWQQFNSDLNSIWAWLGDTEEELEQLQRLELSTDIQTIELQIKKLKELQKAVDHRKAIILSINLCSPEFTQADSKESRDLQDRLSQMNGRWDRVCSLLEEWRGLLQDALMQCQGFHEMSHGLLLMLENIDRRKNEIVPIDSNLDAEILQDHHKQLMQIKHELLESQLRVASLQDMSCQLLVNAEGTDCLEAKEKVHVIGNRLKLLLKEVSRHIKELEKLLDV
# UniProt Q07866: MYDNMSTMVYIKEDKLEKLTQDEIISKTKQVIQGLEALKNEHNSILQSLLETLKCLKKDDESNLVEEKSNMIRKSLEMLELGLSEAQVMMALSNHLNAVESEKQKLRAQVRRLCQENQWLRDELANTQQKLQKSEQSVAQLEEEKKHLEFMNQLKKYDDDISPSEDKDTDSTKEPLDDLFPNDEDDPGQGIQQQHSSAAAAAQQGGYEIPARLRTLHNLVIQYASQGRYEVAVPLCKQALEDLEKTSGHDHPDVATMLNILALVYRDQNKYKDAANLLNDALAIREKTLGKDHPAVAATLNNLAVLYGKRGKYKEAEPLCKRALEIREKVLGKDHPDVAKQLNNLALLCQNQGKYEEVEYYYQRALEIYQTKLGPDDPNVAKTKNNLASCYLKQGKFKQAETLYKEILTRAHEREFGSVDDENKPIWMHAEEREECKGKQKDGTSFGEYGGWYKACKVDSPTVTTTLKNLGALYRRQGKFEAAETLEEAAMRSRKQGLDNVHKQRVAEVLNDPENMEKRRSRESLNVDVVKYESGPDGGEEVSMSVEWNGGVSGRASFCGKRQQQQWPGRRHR
# UniProt P02545, residues 1-646: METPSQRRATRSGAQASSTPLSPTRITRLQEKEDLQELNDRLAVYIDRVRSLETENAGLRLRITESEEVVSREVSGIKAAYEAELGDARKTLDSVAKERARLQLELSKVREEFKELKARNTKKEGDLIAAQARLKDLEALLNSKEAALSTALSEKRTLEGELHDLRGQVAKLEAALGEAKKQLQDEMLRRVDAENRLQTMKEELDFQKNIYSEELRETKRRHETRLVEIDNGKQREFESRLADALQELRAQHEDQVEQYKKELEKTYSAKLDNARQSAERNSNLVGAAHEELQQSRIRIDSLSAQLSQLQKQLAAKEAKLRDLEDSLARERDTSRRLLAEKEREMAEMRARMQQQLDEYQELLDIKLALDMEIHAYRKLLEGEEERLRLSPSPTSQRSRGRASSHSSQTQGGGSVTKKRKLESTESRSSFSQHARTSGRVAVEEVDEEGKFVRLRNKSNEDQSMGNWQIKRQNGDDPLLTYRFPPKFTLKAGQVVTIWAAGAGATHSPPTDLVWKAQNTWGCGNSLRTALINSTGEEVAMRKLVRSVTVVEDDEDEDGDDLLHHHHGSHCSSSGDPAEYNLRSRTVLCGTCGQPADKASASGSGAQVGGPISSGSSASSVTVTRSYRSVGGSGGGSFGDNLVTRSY
# Results are given in words; binding and its absence hold for the method and conditions named. Binding seen in cells or lysates may run through a third protein. Some results given as binding are weak or reduced against the parent protein; the word gives no strength.
# Target: GST-nesprin-1-alpha2 wild type (aa1-842, SR1-5, KASH-less bait protein) (human) (UniProt Q8NF91)
# Experiment: pull-down; GST-tagged bait on glutathione beads, RIPA extract of human myotubes; pulled-down proteins probed by western blot; only the target purified
row,Substance,binding
1,"human kinesin light-chain (kinesin light chain 1, 72 kDa) (from UniProt Q07866 1-573)",binds
2,lamin A/C (from UniProt P02545 1-646),no binding
